# Measured values from the supplement of paper PMC12889115.
# Some of the results follow. These are raw signals, not scaled to a control.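 Primary screen: polymyxin B was added at a level permeabilizing Salmonella outer membranes while sparing inner membranes. DMSO wells, both with and without polymyxin B, established maximum growth. Plate-to-plate variation meant each plate was ranked on its own, and the lowest-OD600 compounds were selected as hits.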
# Tested on: Salmonella enterica serovar Typhimurium SL1344
# Test: bacterial growth OD600 after 18 h with compound and polymyxin B; higher = more bacterial growth (less inhibition)
# Details: 50 µM, Mueller-Hinton broth
structure (smiles),measurement,setting,value
COc1cccc(CN2CC[C@@H](N3CCC(O)CC3)[C@H](O)C2)c1,bacterial growth OD600,polymyxin B 0.75 µg/mL,0.889
O=C(c1ccccn1)N1CCC2(CCCN(Cc3ccc(F)cc3)C2=O)C1 (stereo not given),bacterial growth OD600,polymyxin B 1 µg/mL,0.898
COc1ccc(C(=O)N2CCCN(C=O)CC2)cc1OC1CCN(C(C)C)CC1,bacterial growth OD600,polymyxin B 1 µg/mL,1.08
CSc1nccc(-c2cc(Cl)c3c(c2)CC(CNC(=O)C(c2cccnc2)N2CCCC2)O3)n1 (stereo not given),bacterial growth OD600,polymyxin B 0.75 µg/mL,0.876
O=C(CCC1(Cc2ccc3ccccc3c2)CCC(=O)N1)NCc1cccc(Cl)c1 (stereo not given),bacterial growth OD600,polymyxin B 0.75 µg/mL,0.048
CC(=O)NC(C(=O)N1CCc2c(cnc(C)c2CNC(=O)c2ccsc2)C1)C(C)C (stereo not given),bacterial growth OD600,polymyxin B 0.75 µg/mL,0.815
CN(C(=O)c1ccco1)C(Cc1ccc(F)cc1F)C1CCN(Cc2cccc3ncccc23)CC1 (stereo not given),bacterial growth OD600,polymyxin B 0.75 µg/mL,0.714
O=C(CCc1ccco1)N1CCC(C2CCN(Cc3cccnc3)CC2)C1 (stereo not given),bacterial growth OD600,polymyxin B 0.75 µg/mL,0.865
COc1cccc(CCC2CCCN(C(=O)CSC)C2)c1 (stereo not given),bacterial growth OD600,polymyxin B 0.75 µg/mL,0.58
CC1=C(C(=O)N2CCOC(CCCc3ccccc3)C2)OCCO1 (stereo not given),bacterial growth OD600,polymyxin B 0.75 µg/mL,0.777
COc1ccc([C@@H](C)NC2CCN(c3nc(C)c4ccc(OC)cc4n3)CC2)cc1,bacterial growth OD600,polymyxin B 0.75 µg/mL,1.02
O=C(NCCc1nccc(-c2ccccc2)n1)C1CCC(=O)N(CCN2CCOCC2)C1 (stereo not given),bacterial growth OD600,polymyxin B 1 µg/mL,0.869
OCC1(Cc2cccc(Cl)c2)CCCN(C2Cc3ccccc3C2)C1 (stereo not given),bacterial growth OD600,polymyxin B 1 µg/mL,1.14
O=C(CN1CCCCC1=O)NC1CCCN(C2CCCCCC2)C1 (stereo not given),bacterial growth OD600,polymyxin B 1 µg/mL,0.881
O=C(CC1(c2cccc(F)c2)CC(=O)N(Cc2cccnc2)C1=O)N1CCN(C2CCCC2)CC1 (stereo not given),bacterial growth OD600,polymyxin B 0.75 µg/mL,0.775
O=C(c1cn(CCCc2ccccc2)nn1)N1CCCCC1c1nccs1 (stereo not given),bacterial growth OD600,polymyxin B 1 µg/mL,0.625
Cc1ccc2c(C)nc(N3CCCC(C(=O)NCCc4ccccc4)C3)nc2c1 (stereo not given),bacterial growth OD600,polymyxin B 0.75 µg/mL,0.802
O=C(C1CCOCC1)N1CCCC(CCc2ccc(F)c(F)c2)C1 (stereo not given),bacterial growth OD600,polymyxin B 0.75 µg/mL,0.76
COC(=O)[C@@H]1CCCN1C(=O)Cc1ccc(N2CCC(NCCCn3ccnc3)CC2)cc1,bacterial growth OD600,polymyxin B 0.75 µg/mL,0.941
CN(Cc1ccccc1)c1ncc2c(n1)CC(C)(C)CC2NCc1cnn(C)c1 (stereo not given),bacterial growth OD600,polymyxin B 1 µg/mL,0.913
COC(=O)c1ccc(CNC(C)c2cnc(-c3ccncc3)nc2C)cc1 (stereo not given),bacterial growth OD600,polymyxin B 1 µg/mL,0.707
O=C(CCC1(Cc2ccc3ccccc3c2)CCC(=O)N1)NC(C1CC1)C1CC1 (stereo not given),bacterial growth OD600,polymyxin B 0.75 µg/mL,0.811
Cc1nn(C)cc1CNC(=O)C1CCCN(C2CCN(Cc3ccccc3)CC2)C1 (stereo not given),bacterial growth OD600,polymyxin B 0.75 µg/mL,0.975
CCn1ncc(CNC2CC(=O)N(Cc3cccc4ccccc34)C2)c1C (stereo not given),bacterial growth OD600,polymyxin B 1 µg/mL,0.659
Cc1cc(C)n(CC(=O)NCCN2Cc3ccccc3OC(c3ccccc3F)C2)n1 (stereo not given),bacterial growth OD600,polymyxin B 0.75 µg/mL,0.757
COc1cc2nc(N(C)C)c(CNCc3ccc(Cl)cc3)cc2c(OC)c1OC,bacterial growth OD600,polymyxin B 0.75 µg/mL,0.77
O=C1N(Cc2cccc(F)c2F)CCCC1(O)CN1CCSCC1 (stereo not given),bacterial growth OD600,polymyxin B 1 µg/mL,0.903
O=C(NCCc1cccs1)c1cc(COc2ccc3c(c2)OCO3)[nH]n1,bacterial growth OD600,polymyxin B 1 µg/mL,0.788
COCCCN1C(=O)CC(CC(=O)N2CCC(c3ccccc3Cl)C2)(c2ccccc2OC)C1=O (stereo not given),bacterial growth OD600,polymyxin B 0.75 µg/mL,0.005
O=C(CC1CC1)N1CCCC(N2CCN(Cc3ccc4c(c3)OCO4)CC2)C1 (stereo not given),bacterial growth OD600,polymyxin B 1 µg/mL,0.998

# In another format: results already given.
structure (smiles) | measurement | setting | value
O=C(CCC1(Cc2ccc3ccccc3c2)CCC(=O)N1)NC(C1CC1)C1CC1 (stereo not given) | bacterial growth OD600 | polymyxin B 0.75 µg/mL | 0.811
Cc1nn(C)cc1CNC(=O)C1CCCN(C2CCN(Cc3ccccc3)CC2)C1 (stereo not given) | bacterial growth OD600 | polymyxin B 0.75 µg/mL | 0.975
